Data: patent publication US20240368668A1, “SUBSTRATES AND BIOMARKERS OF ADAMTS7” (The Broad Institute, Inc., priority 2021, published 2024)

Tested on: mouse ADAMTS7
Experiment: TMT10 TAILS N-terminomics, SMC1 experiment (Ad-mADAMTS7 WT vs EQ vs Luc, technical replicates, trypsin digest)
Type: cell-based
Conditions: TAILS N-terminal peptide identified in SMC conditioned media (scale-up, fractions), mouse ADAMTS7; value listed per TAILS_id (protein_StartAA)
Description: (§1) ADAMTS7 Expression, Cell Culture and Preparation of the Secreted Proteins—Full-length mouse Adamts7 1-1857 (Uniprot Q68SA9, WT or E373Q catalytic mutant) with a carboxyl terminal 3xFLAG tag was used to generate custom adenoviruses as previously described. Adeno-CMV-Luciferase (Ad-Luc) from Vector Biolabs was used as a negative control. Human Coronary Artery Smooth Muscle Cells (HCA-SMC) were obtained from Lonza and expanded in Lonza SmGM-2 media in 15 cm tissue culture plates. Twenty-four hours before media collection, near confluent plates were transduced with 50 MOI adenovirus and switched to Lonza Basal SM media with volumes of 20 ml per 15 cm plate. Expression of the Flag tagged ADAMTS7 was confirmed from the media using western blot and detected using the anti-Flag M2-HRP antibody (Sigma, A8592). Collected media was processed by adding protease inhibitors (1 mM EDTA and 1 mM PMSF) and clarified by 500 g×5 min spin at 4 C to pellet cell debris. Cell media supernatants were then passed through a 0.22 um filter and kept chilled. Processed media was then concentrated 50-100× using 3 kDa Centricon Plus-70 filter unit, spun at 3,500 g×60 min at 4 C. Approximately 10% of the processed, concentrated media was set aside for total secretome proteolytic analysis. The remaining 90% of the processed, concentrated media was buffer exchanged into 50 mM HEPES pH 8.0, 150 mM NaCl (2×50 ml) using the 3 kDa Centricon Plus-70 filter unit and concentrated to >2 mg/ml to serve as input for the TAILS experiment. Secretome and TAILS input samples were stored at −80° C.
(§2) For the first experiment, referred to as SMC1, 120 ml of media from 6×15 cm dishes was pooled from each condition (Luc, WT, EQ) and processed to produce three separate inputs for the TAILS experiment. Luc, WT and EQ inputs from the SMC1 experiment were each divided into triplicate 400 ug samples to generate technical replicate TAILS data. For the second experiment, referred to as SMC2, media was processed separately in triplicate for each condition (Luc1, Luc2, Luc3, WT1, WT2, WT3, EQ1, EQ2, EQ3) using 60 ml of media from 3×15 cm dishes for each process replicate. Inputs from the SMC2 experiment used process replicates of 300 ug each to generate TAILS data. The third experiment used input from cultured Human umbilical vein endothelial cells (HUVEC) from Lifeline Cell Technology grown in VascuLife Media and transduced in Lifeline Basal EC (+bFGF2 10 ng/ml). The HUVEC experiment used the same strategy as the SMC2 experiment, with 40 ml of media from 2×15 cm dishes for each process replicate and used 200 ug each to generate TAILS data. Inputs for process replicate experiments were restricted to the lowest concentration from the 9 parallel samples for SMC2 or HUVEC.
(§3) TMT10 isotopic labeling and negative selection of non-labeled peptides-Sample preparation was performed based on the TAILS protocol from the Overall lab with some modifications. From a single experiment, nine parallel protein samples in 50 mM HEPES pH 8.0, 150 mM NaCl were separately denatured with guanidinium chloride (Sigma, G4505) to reach a final concentration of 2.5M guanidinium chloride and 250 mM HEPES and incubated at 65° C. for 15 min. Reduction was achieved through addition of tris(2-carboxylethyl) phosphine (TCEP) at a final concentration of […] and incubated at 65° C. for 45 min. Alkylation reaction was performed with addition of iodoacetamide (IAA, Sigma, A3221) to a final concentration of 10 mM IAA for 15 min at room temperature in the dark. Following denaturation, reduction and alkylation steps, ten percent of each of the nine parallel protein samples was removed and combined to serve as a pooled reference. Isobaric tags were added to free amine groups using the TMT10plex Isobaric Mass Tagging Kit (ThermoFisher, 90113) with TMT channels randomly assigned to the nine samples and TMT 131 assigned to the pooled reference. […]

| Substance | TAILS_SMC_Scaleup_fxns_mATS7i |
| --- | --- |
| POSTN_413 (FSDDTLSMDQR; listed as Homo sapiens) | 1.35E+08 |
| HSPG2_4021 (LNKDGSLR; listed as Homo sapiens) | 3.13E+08 |
| LOXL2_318 (AYKPEQPLVR; listed as Homo sapiens) | 7.35E+09 |
| LTBP2_677 (SLGPGTCTLPLAQR; listed as Homo sapiens) | 2.60E+09 |
| LOX_80 (ANASAQQPR; listed as Homo sapiens) | 8.09E+07 |
| POSTN_754 (IITGPEIKYTR; listed as Homo sapiens) | 2.17E+09 |

Same assay, conditions: TAILS N-terminal peptide signal, SMC scale-up fractions, mouse ADAMTS7; label = TAILS_id (gene symbol_StartAA)

| Substance | TAILS_SMC_Scaleup_fxns_mATS7i |
| --- | --- |
| FN1_47 (QSKPGCYDNGKHYQINQQWER; listed as Homo sapiens) | 1.26E+10 |
| HSPG2_3647 (QGKVKAFAHLQVPER; N-terminal pyroglutamate; listed as Homo sapiens) | 6.48E+08 |
| FLNA_695 (FTVDAKHGGKAPLR; listed as Homo sapiens) | 3.71E+08 |
| FN1_2217 (FQDTSEYIISCHPVGTDEEPLQFR; listed as Homo sapiens) | 3.90E+09 |
| FN1_282 (GSGPFTDVR; listed as Homo sapiens) | 1.05E+10 |
| COL1A2_425 (ASGPAGVR; listed as Homo sapiens) | 3.44E+08 |

Same assay, conditions: intensity of the N-terminal (TAILS) peptide in SMC scale-up TAILS experiment, fractions; peptide identified by TAILS_id (gene symbol_StartAA)

| Substance | TAILS_SMC_Scaleup_fxns_mATS7i |
| --- | --- |
| SMOC1_35 (LISDRDPQCNLHCSR; listed as Homo sapiens) | 9.50E+07 |
| TGFBI_276 (TLLAPTNEAFEKIPSETLNR; listed as Homo sapiens) | 2.25E+08 |

Tested on: mouse ADAMTS7
Experiment: TMT10 TAILS N-terminomics, SMC2 experiment (process replicates, trypsin/AspN digest)
Type: cell-based
Conditions: SMC rd2 TAILS, AspGluN digest; total MS intensity of the N-terminal peptide at the given StartAA
Description: as §1, §2, §3

| Substance | ATS7_SMC_rd2_TAILS_frxns_matS7inDB_AspGluN_retry.totalIntensity |
| --- | --- |
| VAT1_42 (AASPPLLR; listed as Homo sapiens) | 1.26E+08 |
| VIM_276 (YESVAAKNLQ; listed as Homo sapiens) | 5.15E+08 |
| TTN_5975 (VKEPPVEFTKPL; listed as Homo sapiens) | 4.70E+08 |
| TNPO2_744 (VQMVLNNLVEIINRPNTPKTLLE; oxidized methionine, deamidated asparagine; listed as Homo sapiens) | 2.81E+08 |
| TLN1_1004 (AKASVPTIQ; listed as Homo sapiens) | 6.83E+07 |
| VCAN_3367 (FKNSSSAK; listed as Homo sapiens) | 3.21E+08 |
| SHC2_267 (VAKDPINQRACHIL; listed as Homo sapiens) | 3.39E+07 |
| TNS1_236 (QEGLAGYQR; listed as Homo sapiens) | 1.65E+08 |
| TRGC2_86 (HRCIVRHENNK; listed as Homo sapiens) | 6.46E+08 |
| SRGN 59 (LLPGESNKIPR; listed as Homo sapiens) | 2.86E+09 |
| ZSCAN4_25 (FQQSQGPAVQR; listed as Homo sapiens) | 2.40E+08 |
| VIM_322 (QVQSLTCEV; listed as Homo sapiens) | 1.12E+09 |

Same assay, conditions: SMC rd2 TAILS, AspGluN search; total spectral intensity of the N-terminal peptide (TAILS_id = gene_StartAA cleavage site)

| Substance | ATS7_SMC_rd2_TAILS_frxns_matS7inDB_AspGluN_retry.totalIntensity |
| --- | --- |
| LOXL2_45 (HQPQAPANVAKIQLR; listed as Homo sapiens) | 6.08E+08 |
| KCND1_436 (RLAKSGTTNAFLQYKQNGGLE; listed as Homo sapiens) | 3.21E+08 |
